Measured values from article PMC9271825.
Numbering of substitutions follows the chain as printed. In names and notes the source's numbering stands. These are yes or no findings as the source states them, for the method shown. Some binding calls cover weakened binding; strength is not graded here. For some assays here: Tags and fused reporters may be left off the sequences shown.

How the values were obtained:
[1] = target: T1, Human Claudin-7 (Cldn7), wild type, His-tagged (human), O95471; assay: FRET between lipid-labelled proteoliposomes (membrane tethering); proteoliposomes with NBD-PE mixed with proteoliposomes with Liss-Rhod-PE, RT, samples over time; ratiometric FRET efficiency against liposomes without protein; both purified; conditions: remark: other sources report otherwise
T1 chain: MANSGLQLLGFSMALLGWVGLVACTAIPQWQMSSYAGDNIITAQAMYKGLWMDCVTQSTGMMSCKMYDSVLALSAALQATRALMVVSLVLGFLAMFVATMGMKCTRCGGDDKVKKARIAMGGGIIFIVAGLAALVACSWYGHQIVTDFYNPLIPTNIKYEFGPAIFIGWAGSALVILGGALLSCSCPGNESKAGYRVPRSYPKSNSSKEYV

[2] = target: T1, Human Claudin-7 (Cldn7), wild type, …; assay: atomic force microscopy of proteoliposomes (membrane stacks); purified protein reconstituted 1:400 into DOPC liposomes, spread on mica (p-buffer + 50 mM Mg2+), imaged in p-buffer; membrane stacks of multiples of 5 nm read as trans-interaction; also at different NaCl concentrations; both purified; conditions: remark: other sources report otherwise
[3] = target: T1, Human Claudin-7 (Cldn7), wild type, …; assay: precipitation at low NaCl (dialysis, centrifugation, SDS-PAGE densitometry); ~4 µM purified protein in DDM dialyzed against p-buffer with 0-300 mM NaCl, 20,000 g 1 min at RT; monomer band of supernatant and pellet quantified; wt and mutants compared at 0 and 300 mM NaCl; both purified; conditions: remark: other sources report otherwise
[4] = target: Cldn7* (V70A, R81A, F148A, Y149A, E160A and F161A) (human) (UniProt O95471); assay: atomic force microscopy of proteoliposomes (membrane stacks); purified protein reconstituted 1:400 into DOPC liposomes, spread on mica (p-buffer + 50 mM Mg2+), imaged in p-buffer; membrane stacks of multiples of 5 nm read as trans-interaction; also at different NaCl concentrations; both purified
[5] = target: Cldn7* (V70A, R81A, F148A, Y149A, E160A and F161A) (human) (UniProt O95471); assay: FRET between lipid-labelled proteoliposomes (membrane tethering); proteoliposomes with NBD-PE mixed with proteoliposomes with Liss-Rhod-PE, RT, samples over time; ratiometric FRET efficiency against liposomes without protein; both purified

B1: Human Claudin-7 (Cldn7), wild type, His-tagged, O95471 1-211 (natural protein)
chain: T1 chain
In the case of B1, the binding [1] is reported as “binds”, the binding [2] is reported as “binds” and the binding [3] is reported as “binds”.

B2: Cldn7* (V70A, R81A, F148A, Y149A, E160A and F161A) (protein, UniProt O95471 1-211)
chain: T1 chain with V70A, R81A, F148A, Y149A, E160A, F161A
In the case of B2, the binding [4] is reported as “binds” and the binding [5] is reported as “binds”.
